Experimental data published in publication PMC2659767, “Tracking Membrane Protein Association in Model Membranes” (PLoS ONE, 2009).
These are yes or no findings as the source states them, for the method shown.

B1: MexA, mature form bearing a palmitoyl moiety, FITC-labeled, P52477 24-383 (protein)
chain: CGKSEAPPPAQTPEVGIVTLEAQTVTLNTELPGRTNAFRIAEVRPQVNGIILKRLFKEGSDVKAGQQLYQIDPATYEADYQSAQANLASTQEQAQRYKLLVADQAVSKQQYADANAAYLQSKAAVEQARINLRYTKVLSPISGRIGRSAVTEGALVTNGQANAMATVQQLDPIYVDVTQPSTALLRLRRELASGQLERAGDNAAKVSLKLEDGSQYPLEGRLEFSEVSVDEGTGSVTIRAVFPNPNNELLPGMFVHAQLQEGVKQKAILAPQQGVTRDLKGQATALVVNAQNKVELRVIKADRVIGDKWLVTEGLNAGDKIITEGLQFVQPGVEVKTVPAKNVASAQKADAAPAKTDSKG
modifications: here or on the partner: palmitoyl moiety (on the unique N-terminal cysteine); FITC label; palmitoyl moiety (on the unique N-terminal cysteine); FITC label
B2: MexA, mature form bearing a palmitoyl moiety, FITC-labeled (natural protein)
chain: B1 chain
modifications: palmitoyl moiety (on the unique N-terminal cysteine); FITC label
notes: MexA, periplasmic lipoprotein of the MexA-MexB-OprM efflux pump of Pseudomonas aeruginosa, in its mature form; Found monomeric in the sponge phase; also called FITC-labeled MexA; periplasmic protein MexA; source: solubilized in 1% beta-octylglucoside, then inserted into the L3 sponge phase

Legend:
[1] = target: T1, MexA, mature form bearing a palmitoyl moiety, FITC-labeled (Pseudomonas aeruginosa), P52477; test: FRAPP (fluorescence recovery after fringe pattern photobleaching); FITC-labeled MexA alone in the C12E5/beta-OG L3 sponge phase, dW 90 to 320 A; diffusion coefficient compared with that of the lipid FITC-C16; 100 mM NaCl, 50 mM Na2HPO4 pH 7.5, 5% glycerol; both purified; conditions: remark: other sources report otherwise
T1 chain: B1 chain

[2] = target: T2, OprM trimer, unlabeled (Pseudomonas aeruginosa) (UniProt Q51487); test: condition: only bilayer separation dW<150 A (MexA 0.1 uM, OprM trimer 1 uM); FRAPP (fluorescence recovery after fringe pattern photobleaching); FITC-labeled MexA (0.1 uM) in sponge phase containing unlabeled OprM trimer (1 uM), bilayer separation dW<150 A; pH 7.5; both purified
T2 sequence (chain, palmitoyl moiety (said of the protein in general)): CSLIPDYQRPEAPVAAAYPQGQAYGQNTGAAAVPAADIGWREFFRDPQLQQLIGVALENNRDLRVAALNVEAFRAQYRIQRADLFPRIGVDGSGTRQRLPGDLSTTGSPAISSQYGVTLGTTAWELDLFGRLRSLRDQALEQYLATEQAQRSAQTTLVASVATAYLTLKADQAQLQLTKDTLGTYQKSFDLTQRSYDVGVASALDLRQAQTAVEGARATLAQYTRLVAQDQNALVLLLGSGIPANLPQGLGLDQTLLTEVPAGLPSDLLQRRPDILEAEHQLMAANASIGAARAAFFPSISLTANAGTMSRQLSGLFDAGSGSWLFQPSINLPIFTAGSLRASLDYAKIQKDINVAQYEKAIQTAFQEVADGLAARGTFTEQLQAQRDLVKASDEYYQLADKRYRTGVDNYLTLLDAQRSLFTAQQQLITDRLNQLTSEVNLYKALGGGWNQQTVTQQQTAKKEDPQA

[3] = target: T2, OprM trimer, unlabeled (Pseudomonas aeruginosa); test: condition: only bilayer separation dW>250 A (MexA 0.1 uM, OprM trimer 1 uM); FRAPP (fluorescence recovery after fringe pattern photobleaching); FITC-labeled MexA (0.1 uM) in sponge phase containing unlabeled OprM trimer (1 uM), bilayer separation dW>250 A (only lateral interactions possible); pH …; both purified

Binder	binding [1]	binding [2]	binding [3]
B1	no binding	–	–
B2	–	no binding	no binding
